No constants are given. Whether binding was seen depends on the method and setting. Binding seen in cells or lysates may run through a third protein. These calls come from enrichment with a bait or labelling near it, and not all partners need be listed.

By UniProt entry, the sequences of proteins in these tests, tags left out.
UniProt P49739: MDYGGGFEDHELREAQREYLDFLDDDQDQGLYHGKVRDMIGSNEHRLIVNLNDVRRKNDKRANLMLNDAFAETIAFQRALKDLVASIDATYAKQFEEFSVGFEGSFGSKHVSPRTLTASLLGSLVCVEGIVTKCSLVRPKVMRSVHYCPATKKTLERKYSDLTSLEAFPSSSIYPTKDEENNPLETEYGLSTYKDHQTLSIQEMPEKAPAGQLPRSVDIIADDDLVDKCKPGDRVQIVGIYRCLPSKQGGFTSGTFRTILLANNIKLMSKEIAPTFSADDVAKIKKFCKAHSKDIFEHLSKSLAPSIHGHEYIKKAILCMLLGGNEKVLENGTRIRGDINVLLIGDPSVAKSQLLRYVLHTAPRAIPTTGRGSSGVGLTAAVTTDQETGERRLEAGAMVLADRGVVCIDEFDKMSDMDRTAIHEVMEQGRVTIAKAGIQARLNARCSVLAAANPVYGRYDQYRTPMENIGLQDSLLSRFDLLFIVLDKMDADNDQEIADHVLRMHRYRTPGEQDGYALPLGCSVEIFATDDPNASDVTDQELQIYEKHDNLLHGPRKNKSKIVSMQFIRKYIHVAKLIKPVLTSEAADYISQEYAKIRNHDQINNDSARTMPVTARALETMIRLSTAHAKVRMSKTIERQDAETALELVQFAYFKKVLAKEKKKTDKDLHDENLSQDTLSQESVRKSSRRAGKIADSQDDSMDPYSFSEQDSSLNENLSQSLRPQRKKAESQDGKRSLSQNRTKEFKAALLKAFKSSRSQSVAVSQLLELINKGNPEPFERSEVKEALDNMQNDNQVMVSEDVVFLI

Here are results for 1 molecule from article doi:10.1101/418368.

This test concerns the target Mcm3 (Xenopus laevis (endogenous in egg extract)) (UniProt P49739). Briefly: affinity purification with mass spectrometry.

B1: Ctf4/And-1 (protein, UniProt O13046 1-1127)
chain: MPAIKKNMRYGHPEGHTDVCFDDSGNFLVTCGSDGDIRIWESLDDDDPKSISIGEKAYSFALKNGKVVTAASNNAIQLHTFPDGEPDGILTRFTTNANHVVFNTDGTRIAAGSGDFLVKVLQVEDSTQQKTLRGHSAPVLSVSFDPKDIYLASASCDGSVRIWKISDQTCEAVLPLLEKCNDVFNAKSICRLAWQPKSGKFVAIPVGKAVHLYDRDSLKNICTLSDDFITQPVNIVAWSPCGQYLVAGSVDGCIVAWNIATKACLERIKHEKGYTICALAWHPHLPQIAYTDNEGNLGLLEDVCQGDVKQPSAKVSSAETKDYDELFDGDDDEDFLNGDMIGHEGAVNDEDDDDNFTALTGRPRNRGAIFDDDISSDVPSLKLVGNENPVVEDDQASSVQNFTSVASVKLSYNGPMPTPQQKPFQSGSTPVHLMHRFMVWNSVGVIRCYNDEQDNAIDVEFHDTSIHHAIHLTNSLNHTLADVSQEAVLLACETTEELASKLQCLHFSSWDTSKEWMVDMPKGENIQAICLGQGWVACATSALLIRIFSVGGVQKELISLFGPVVCMASHGEQLIVVYHRGMGFDGDQCLGVQLLELGKKKKQVLHGDPLPLSRKSYLSWLGFTAEGSPCYVDSEGIVRLLNRSLGDTWVPICNTREHCKGKSDHYWVVGIHENPQQVRCIPCKGSRFPPTLPRPAVAVLPFNLPYCQITTEKGQMEEQYWRSQIFSNHSDYLSKHGYECDENFKAEAQKMQQELLMKMFALSCKLEREFRCMELAEFMTQNVMNLAIKYASRSKRLILAQRLSEMALEKAAEQASAEQNEEEDEEEEDFRSRLTAGYSRTATEWGDSRAKPVKQDQYEENNEEEMEEEEKEQEEALESNTPTANPFNKSVKTPDVSESKLGAILSSNQGRVNPFKVSASQKSPAFASNSSRSTSILDNMGKFPRKPSASGSPSTSKSDSVIIKPLAPKAKSKQGQATLFHSVQAKPIAKKTTEEKKAVPTPPKAAADIAENKKPKTGFQLWLDENRPSILSENAGLDESEIIKEGMSRFRMLTSEERMLWTEKAKGDYPGEDGADAKKRKRPEQENMASNGCPQENTDSGIAAAKKHKPLGQSANNKLSAFAFKKE
In the case of B1, the binding result is reported as “binds”.
